PubChem BioAssay AID504793 – Drosophila RNAi Screening Center, 2011
The deposit covers about 23,000 reagents; shown is an unselected part of those that have a named target and a result. Of all reagents, 62 (0.27%) were called active. 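Calls come from follow-up tests whose scores are not deposited, so confirmed genes may have low counts here; counts are not normalised per plate.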 Raw values are not corrected between plates.

Assay: 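Knock-downs allowing continued mitosis even though DNA is damaged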 (primary screen)
System: Drosophila S2R+ cells
Knock-down reagent: long dsRNA against Drosophila genes, about 0.25 µg dsRNA per well
Duration: 4 days of dsRNA, then 4 hours of drug before read-out
Conditions: doxorubicin 0.5 µM for 4 hours to cause double-strand breaks, in cells also given a low, harmless dose of dsRNA against nbs to sensitise the assay
Read-out: 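Mitotic index as the number of phospho-histone H3-positive cells in each well following doxorubicin, given as raw counts without normalisation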
Reading the numbers: mitotic cells: higher = more cells in mitosis, weaker G2 arrest
Rule for the call: 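a call needs confirmation in secondary tests, with other dsRNAs and a check of mitotic timing without damage, not just a high primary count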
Meaning of the calls: active = confirmed in follow-up tests; inactive = not confirmed

Against EndoU [DRSC15472], the values are mitotic cells, replicate 1 = 15; inactive.
CG32462 [DRSC11851] showed mitotic cells, replicate 1 = 3; inactive.
After knock-down of CG32462 [DRSC29458], the screen gave mitotic cells, replicate 1 = 5; inactive.
Against CG34050 (retired record) [DRSC09067], the entry reads mitotic cells, replicate 1 = 2; inactive.
Depletion of CG34050 (retired record) [DRSC26231] resulted in: mitotic cells, replicate 1 = 13; inactive.
Orc5 [DRSC03390] scored mitotic cells, replicate 1 = 3; inactive.
Silencing of Orc5 [DRSC28207] gave: mitotic cells, replicate 1 = 8; inactive.
Eato [DRSC01891] scored mitotic cells, replicate 1 = 6; inactive.
Eato [DRSC03061] showed mitotic cells, replicate 1 = 5; inactive.
With knock-down of Rsph1 [DRSC02864] the results were mitotic cells, replicate 1 = 10; inactive.
Rsph1 [DRSC26510] scored mitotic cells, replicate 1 = 5; inactive.
Atg12 [DRSC09803] showed mitotic cells, replicate 1 = 8; inactive.
Knock-down of rdhB [DRSC16190] gave: mitotic cells, replicate 1 = 6; inactive.
After knock-down of CG33281 [DRSC00421], the screen gave inactive.
CG15912 [DRSC18105] scored mitotic cells, replicate 1 = 11; inactive.
Against CG15912 [DRSC28275] the deposit lists mitotic cells, replicate 1 = 7; inactive.
After knock-down of CG15024 [DRSC08478], the screen gave mitotic cells, replicate 1 = 4; inactive.
Against ed [DRSC00350], the entry reads mitotic cells, replicate 1 = 4; inactive.
With knock-down of ed [DRSC00438], the screen gave mitotic cells, replicate 1 = 4; inactive.
Against ed [DRSC00439] the deposit lists mitotic cells, replicate 1 = 4; inactive.
ed [DRSC00478] gave mitotic cells, replicate 1 = 2; inactive.
Silencing of atlas [DRSC04183] gave: mitotic cells, replicate 1 = 6; inactive.
For Teh1 [DRSC14544] the deposit lists mitotic cells, replicate 1 = 4; inactive.
With knock-down of CG2127 [DRSC06821], the record shows mitotic cells, replicate 1 = 5; inactive.
With knock-down of l(2)27Cb (retired record) [DRSC02758], the screen gave mitotic cells, replicate 1 = 1; inactive.
Notum [DRSC09959] scored mitotic cells, replicate 1 = 7; inactive.
With knock-down of Acsx1L [DRSC16014], the record shows mitotic cells, replicate 1 = 15; inactive.
Against Acsx1L [DRSC25334], the entry reads mitotic cells, replicate 1 = 9; inactive.
CG13038 [DRSC09919] showed mitotic cells, replicate 1 = 5; inactive.
After knock-down of Sec10 [DRSC17053] the results were mitotic cells, replicate 1 = 8; inactive.
Against Sec10 [DRSC29106], the values are mitotic cells, replicate 1 = 7; inactive.
With knock-down of lz [DRSC18790], the screen gave mitotic cells, replicate 1 = 8; inactive.
For lz [DRSC22302], the entry reads mitotic cells, replicate 1 = 7; inactive.
lz [DRSC25157] showed mitotic cells, replicate 1 = 9; inactive.

In a second layout: entries from further up
Gene	amplicon	mitotic cells, replicate 1	Outcome
Eato	DRSC03061	5	inactive
Rsph1	DRSC02864	10	inactive
